The target in one data set is T1, TFIIB (UniProt P29055).
T1 sequence (looked up, limits assumed): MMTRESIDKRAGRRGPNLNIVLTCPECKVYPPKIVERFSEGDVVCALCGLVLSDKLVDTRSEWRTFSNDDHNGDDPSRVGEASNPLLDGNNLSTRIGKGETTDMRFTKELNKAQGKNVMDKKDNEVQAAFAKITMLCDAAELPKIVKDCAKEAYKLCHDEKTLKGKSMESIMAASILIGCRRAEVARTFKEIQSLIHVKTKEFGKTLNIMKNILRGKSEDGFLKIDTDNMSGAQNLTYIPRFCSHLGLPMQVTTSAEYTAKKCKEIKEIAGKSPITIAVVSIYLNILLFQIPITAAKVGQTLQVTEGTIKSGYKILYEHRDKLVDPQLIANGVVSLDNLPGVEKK
Description: binding assay. Particulars: method not stated; does not interfere with TFIIB-TBP interaction; purified recombinant protein.

Sequences of proteins named here, by UniProt entry; tags and fusion partners are left off. Residues count along the entry.
UniProt P13393, 2-240: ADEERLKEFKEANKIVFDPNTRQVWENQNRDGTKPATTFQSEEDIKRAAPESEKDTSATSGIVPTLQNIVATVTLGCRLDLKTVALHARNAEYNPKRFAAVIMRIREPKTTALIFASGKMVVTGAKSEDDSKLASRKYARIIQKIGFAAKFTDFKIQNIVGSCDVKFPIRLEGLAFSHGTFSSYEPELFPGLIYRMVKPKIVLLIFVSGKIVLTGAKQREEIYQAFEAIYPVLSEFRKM

Data set [1] addresses TBP (in yeast whole cell extract) (UniProt P13393). Description: inhibition of the protein. Particulars: TBP around 20 nM in extract, protein in an extract.
Data set [2] deals with T2, B52 on polytene chromosomes (UniProt P26686).
T2 sequence (looked up, limits assumed): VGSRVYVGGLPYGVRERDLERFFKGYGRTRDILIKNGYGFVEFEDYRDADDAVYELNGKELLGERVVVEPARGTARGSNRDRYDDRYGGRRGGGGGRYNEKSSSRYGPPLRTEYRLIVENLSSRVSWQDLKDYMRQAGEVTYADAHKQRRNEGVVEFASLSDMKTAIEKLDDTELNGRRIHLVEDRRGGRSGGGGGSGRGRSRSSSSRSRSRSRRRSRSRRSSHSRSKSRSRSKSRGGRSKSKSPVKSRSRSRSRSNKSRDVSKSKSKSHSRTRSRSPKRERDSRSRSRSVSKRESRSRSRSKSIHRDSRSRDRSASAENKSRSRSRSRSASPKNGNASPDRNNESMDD
Kind of data set: binding assay. Particulars: fluorescence with Texas Red streptavidin; B52-like pattern, heat shock loci labeled; protein in cells; protein details: fixed salivary gland squashes.

For some of these results: Where cells or extracts were used, other partners may take part. For some of these results: Tags and fusion partners may be left off the protein sequences shown. For some of these results: For at least one entry, the source does not settle the construct or the ends of the probe.

The text below walks through data of patent US20050282190.

As to “GGGAGAAUUCAACUGCCAUCUAGGCAAAGAGCUAAUGUAGGAUGCUGGGGUAGUCCAGCCCUAGAAUAAGCGCUAGUACUACAAGCUUCUGGAGCUCGGU [AptB4]”, the equilibrium dissociation constant (Kd) in the data set with TFIIB amounted to 7 nM.
Take “GGGAGAAUUCAACUGCCAUCUAGGCAGCCAAGGUAAACAAUUCAGUUAGUGGAAUGAAACUGCCCAACACCAGAAGUACUACAAGCUUCUGGACUCGGU [AptTBP-101]”: the “functional effect of the aptamer” value in data set [1] (inhibits Pol II dependent transcription from AdML promoter as potently as AptTBP-12) is “active”.
Regarding “GGGAGAAUUCAACUGCCAUCUAGGCGCCGUGCCCGGUUUGGAUAGGCACAUAAGACGCCGACAAAGAAACCAACCAGUACUACAAGCUUCUGGACUCGGU [AptTBP-12]”, the “functional effect of the aptamer” value in data set [1] (inhibits Pol II dependent transcription from AdML promoter) is “active”.
Regarding “GGGAUCGCCGCGGCUGGUCAACCAGGCGACCGCCGCGGCCACAGCGGUGGGCUGGUCAACCAGGCGACCGCCCACCAGCGUUCCCGGAUCCGUGACCGACCAGAAUCAUGCAAGUGCGUAAGAUAGUCGCGGGUCGGGUCAUACUCCCGGCCAGAAUCAUGCAAGUGCGUAAGAUAGUCGCGGGCCGGGAGGCGGAUUC [aptabody B-S]”, the binding result in data set [2] was “binds”.
